Results are given in words; binding and its absence hold for the method and conditions named. Some results given as binding are weak or reduced against the parent protein; the word gives no strength.

By UniProt entry, the sequences of proteins in these tests, tags left out. Residues count along the entry.
UniProt Q9Y618, residues 350-480: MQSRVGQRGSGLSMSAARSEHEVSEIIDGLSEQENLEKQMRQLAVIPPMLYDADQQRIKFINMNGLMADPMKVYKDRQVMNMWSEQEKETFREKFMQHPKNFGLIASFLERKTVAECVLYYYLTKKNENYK
UniProt O15379: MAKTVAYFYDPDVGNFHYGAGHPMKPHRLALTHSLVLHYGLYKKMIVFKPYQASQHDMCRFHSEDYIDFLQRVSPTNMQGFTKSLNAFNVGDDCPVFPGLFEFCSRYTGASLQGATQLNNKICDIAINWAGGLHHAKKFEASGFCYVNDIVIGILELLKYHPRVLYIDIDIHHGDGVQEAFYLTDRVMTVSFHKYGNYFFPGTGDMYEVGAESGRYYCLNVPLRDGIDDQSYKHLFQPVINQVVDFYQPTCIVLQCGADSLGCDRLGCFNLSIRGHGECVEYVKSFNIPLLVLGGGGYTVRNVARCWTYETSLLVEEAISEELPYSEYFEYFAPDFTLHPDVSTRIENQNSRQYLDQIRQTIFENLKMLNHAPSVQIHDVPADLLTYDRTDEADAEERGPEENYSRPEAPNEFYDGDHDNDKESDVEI

The target of this test is SMRT residues 350-480 (UniProt Q9Y618). The experiment in a line: co-purification (FLAG affinity resin, then gel filtration); HDAC3 and FLAG-SMRT 350-480 co-transfected in HEK293F; cleared lysate on FLAG resin 1 h at 4 °C, washes up to 300 mM potassium acetate, TEV elution, Superdex S200 in 50 mM potassium acetate, 25 mM Tris pH 7.5, 0.5 mM TCEP; afterwards 1 M NaCl treatment to remove Ins(1,4,5,6)P4. Background: SEC sorts molecules by how far they enter the pores of the column.

“HDAC3 (from UniProt O15379 1-428) (enzyme)”: the binding result is recorded as “binds”.
